The test system of this test is nude mice, A549 intrarenal xenograft, tumor weight change. Put plainly: NCI In Vivo Anticancer Drug Screen. Data for tumor model A549 Human Adenocarcinoma of Lung with characteristics of Type II Alveolar Epithelial cells (intrarenal inoculation) in NU/NU BALB/C (nude) mice. To be noted: T/C endpoint: mean tumor weight change, higher T/C = larger tumour; for T/C: evaluated on day 12. Summed up:
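Mice bearing transplantable tumors were treated and survival or tumor size recorded. Values are given as treated-group measurement divided by vehicle-control measurement (T/C).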

The mark [1] stands for this setting: dose: 150.0 mg/kg/injection, schedule: Q04DX003 (ip), vehicle: DMSO.
Where [2] appears, read: dose: 200.0 mg/kg/injection, schedule: Q04DX003 (ip), vehicle: saline with Tween-80.
Setting [3] is: dose: 100.0 mg/kg/injection, schedule: Q04DX003 (ip), vehicle: saline.
The mark [4] stands for this setting: dose: 400.0 mg/kg/injection, schedule: Q04DX003 (ip), vehicle: saline.
Setting [5] is: dose: 200.0 mg/kg/injection, schedule: Q04DX003 (ip), vehicle: saline.
Setting [6] is: dose: 600.0 mg/kg/injection, schedule: Q04DX003 (ip), vehicle: Klucel (hydroxypropylcellulose) (HPC).
Setting [7] is: dose: 1200.0 mg/kg/injection, schedule: Q04DX003 (ip), vehicle: saline with Tween-80.
The mark [8] stands for this setting: dose: 1200.0 mg/kg/injection, schedule: Q04DX003 (ip), vehicle: Klucel (hydroxypropylcellulose) (HPC).

Structures are written as SMILES. The list shows only some results of the screen, not a fair sample: it is rich in T/C values a quarter to a half above the control, in often repeated tests (any T/C) and in doses without a T/C. Further doses and runs are listed elsewhere. T/C gives the treated animals as a percentage of the vehicle group. Schedules are NCI's codes, taken here to give the interval after Q, in days (D) or hours (H), and the number of doses after X. Some T/C values are followed by the survivors on the day toxicity was checked, most often the fifth; where none is given, no animal had died by that day. Some doses were run more than once; the values are given in rising order. Some doses have a count of surviving animals in place of a T/C: the source holds a T/C of zero for them, seemingly a mark for toxic or unscored doses. Survivors were counted at the toxicity check, usually on the fifth day, unless a day is given; later deaths do not show.

Consider `C=Cc1cc(OC)c2c(c1)c(=O)oc1c2cc(OC)c2c(O)ccc(C3OC(C)C(O)C(C)(O)C3O)c21` (stereo not drawn), for which the survivor count (dose: 75.0 mg/kg/injection, schedule: Q04DX003 (ip), vehicle: DMSO) is listed as 3 of 6 on day 12; the survivor count under setting [1] was 3 of 6 on day 12; the survivor count (dose: 600.0 mg/kg/injection, schedule: Q04DX003 (ip), vehicle: DMSO) is 1 of 6 on day 12.

As to `CC(=O)C[n+]1ccc(C)cc1Sc1ccccc1C`, for the setting “dose: 25.0 mg/kg/injection, schedule: Q04DX003 (ip), vehicle: saline with Tween-80”, the T/C was 126 % of control [5 of 6 alive on day 12]. Moreover, the survivor count under setting [2] is given as 1 of 6 on day 12.

As for `O=S(=O)(c1cccc(N=C=S)c1)c1cccc(N=C=S)c1`, the T/C (dose: 60.0 mg/kg/injection, schedule: Q04DX003 (ip), vehicle: Klucel (hydroxypropylcellulose) (HPC)) was 135 % of control. For the same compound, the survivor count (dose: 120.0 mg/kg/injection, schedule: Q04DX003 (ip), vehicle: Klucel (hydroxypropylcellulose) (HPC)) is 0 of 6 on day 12 and the survivor count (dose: 240.0 mg/kg/injection, schedule: Q04DX003 (ip), vehicle: Klucel (hydroxypropylcellulose) (HPC)) is 0 of 6 on day 12.

`O=C(Nc1cccc(O)c1)C(Cl)=C(Cl)Cl`: the survivor count runs as follows: (dose: 12.5 mg/kg/injection, schedule: Q04DX003 (ip), vehicle: DMSO) 2 of 6 on day 12; (dose: 50.0 mg/kg/injection, schedule: Q04DX003 (ip), vehicle: other) 3 of 6 on day 12; (dose: 83.0 mg/kg/injection, schedule: Q04DX003 (ip), vehicle: other) 0 of 6 on day 12; (dose: 100.0 mg/kg/injection, schedule: Q04DX003 (ip), vehicle: DMSO) 0 of 6 on day 12; (dose: 139.0 mg/kg/injection, schedule: Q04DX003 (ip), vehicle: other) 1 of 6 on day 12.

For `COc1ccc(C=C(C(=O)CCN(C)C)C(=O)CCN(C)C)cc1`, the T/C under setting [3] is 125 % of control. Also, under setting [4], the survivor count is listed as 0 of 6 on day 12.

Turning to `COc1cccc2c1C(=O)c1c(O)c3c(c(O)c1C2=O)C[C@@](O)(C(=O)CO)C[C@@H]3OC1CC(N)C(O)C(C)O1` (stereo partly drawn), the survivor count (dose: 16.0 mg/kg/injection, schedule: Q04DX003 (ip), vehicle: saline) was 0 of 6 on day 12 and 3 of 6 on day 12.

Turning to `Cc1ccc(C2=CSC3=NCCN23)cc1Cl`, for the setting “dose: 10.0 mg/kg/injection, schedule: Q04DX003 (ip), vehicle: saline”, the T/C was 149 % of control. The survivor count (dose: 40.0 mg/kg/injection, schedule: Q04DX003 (ip), vehicle: suspension in saline) is on record as 1 of 6 on day 12.

For the compound `N#CC(C#N)=NNc1ccc2cn[nH]c2c1`, the T/C (dose: 50.0 mg/kg/injection, schedule: Q04DX003 (ip), vehicle: Klucel (hydroxypropylcellulose) (HPC)) was 128 % of control.

For `CNC(=O)OCc1nc(SC)n(C)c1COC(=O)NC`, the survivor count reads like this: (dose: 50.0 mg/kg/injection, schedule: Q04DX003 (ip), vehicle: saline) 0 of 6 on day 12; under setting [3], 0 of 6 on day 12; under setting [5], 0 of 6 on day 12.

As for `CC1/C=C/C=C/CC/C=C/C=C/C=C/C=C/C(OC2OC(C)C(O)C(N)C2O)CC2OC(CC(O)C(O)CCC(O)CC(O)CC(O)CC(=O)OC(C)C(C)C1O)CC(O)C2C(=O)O` (stereo not drawn), the survivor count under setting [2] was 3 of 5 on day 12.

Turning to `CN(C)c1ccc2c(SCC(=O)OCC(=O)[C@@]3(O)CC[C@H]4[C@@H]5CCC6=CC(=O)C=C[C@]6(C)[C@H]5C(=O)C[C@@]43C)c3ccc(N(C)C)cc3nc2c1`, the survivor count under setting [6] is reported as 1 of 6 on day 12.

Take `CN(C)/N=N/c1nc[nH]c1C(N)=O`: the T/C was 32, 74 [5 of 6 alive on day 12], 97, 123 % of control (dose: 100.0 mg/kg/injection, schedule: Q04DX003 (ip), vehicle: Klucel (hydroxypropylcellulose) (HPC)); 25, 26, 100, 122 % of control (dose: 150.0 mg/kg/injection, schedule: Q04DX003 (ip), vehicle: Klucel (hydroxypropylcellulose) (HPC)); 28, 47, 58, 76 % of control (dose: 225.0 mg/kg/injection, schedule: Q04DX003 (ip), vehicle: Klucel (hydroxypropylcellulose) (HPC)).

With `CC1C(c2ccccc2)OC(N2CCOCC2)C(C)(C)CN1C` (stereo not drawn), the survivor count runs as follows: (dose: 600.0 mg/kg/injection, schedule: Q04DX003 (ip), vehicle: saline with Tween-80) 0 of 6 on day 12; under setting [7], 0 of 6 on day 12.

As to `COc1cc(C)c(C2NC(=O)c3ccccc3N2)cc1C` (stereo not drawn), the T/C (dose: 216.0 mg/kg/injection, schedule: Q04DX003 (ip), vehicle: Klucel (hydroxypropylcellulose) (HPC)) was 131 % of control.

For the compound `S=C(NCNC(=S)c1ccncc1)c1ccncc1`, under setting [7], the survivor count is reported as 0 of 6 on day 12.

As for `Cn1c(=S)sc2nc3ccccc3n2c1=S`, the survivor count reads like this: (dose: 240.0 mg/kg/injection, schedule: Q04DX003 (ip), vehicle: saline with Tween-80) 1 of 5 on day 12; (dose: 480.0 mg/kg/injection, schedule: Q04DX003 (ip), vehicle: saline with Tween-80) 1 of 6 on day 12.

Regarding `O=C(NC(Cc1ccc(I)cc1)C(=O)O)c1cccc(Br)c1` (stereo not drawn), the survivor count (dose: 400.0 mg/kg/injection, schedule: Q04DX003 (ip), vehicle: Klucel (hydroxypropylcellulose) (HPC)) is reported as 3 of 5 on day 12; the survivor count under setting [6] was 1 of 6 on day 12; the survivor count (dose: 800.0 mg/kg/injection, schedule: Q04DX003 (ip), vehicle: Klucel (hydroxypropylcellulose) (HPC)) is 1 of 6 on day 12; the survivor count under setting [8] is listed as 0 of 6 on day 12.

In the case of `CN(C)C(=O)Nc1ccc(Cl)cc1`, the survivor count (dose: 1200.0 mg/kg/injection, schedule: Q04DX003 (ip), vehicle: suspension in saline) is 0 of 6 on day 12.

In the case of `CCCCCCCCCCCCN1C(C)=CS/C1=C\C=C\c1scc(C)[n+]1CCCCCCCCCCCC`, the survivor count is reported as 2 of 6 on day 12 (dose: 6.0 mg/kg/injection, schedule: Q04DX003 (ip), vehicle: saline with Tween-80); 0 of 6 on day 12 (dose: 12.0 mg/kg/injection, schedule: Q04DX003 (ip), vehicle: saline with Tween-80); 0 of 6 on day 12 (dose: 24.0 mg/kg/injection, schedule: Q04DX003 (ip), vehicle: saline with Tween-80).

`Nc1ccn([C@@H]2C=C(CO)[C@@H](O)[C@H]2O)c(=O)n1`: the survivor count by setting is: (dose: 2.25 mg/kg/injection, schedule: Q01DX009 (ip), vehicle: saline) 2 of 6 on day 12; (dose: 4.0 mg/kg/injection, schedule: Q01DX009 (ip), vehicle: saline) 0 of 6 on day 12; (dose: 8.0 mg/kg/injection, schedule: Q01DX009 (ip), vehicle: saline) 0 of 6 on day 12.

Take `NC(=S)N/N=C/c1cc(=O)c2cc(Cl)ccc2o1`: the survivor count is, setting by setting: under setting [1], 3 of 5 on day 12; (dose: 1200.0 mg/kg/injection, schedule: Q04DX003 (ip), vehicle: other) 2 of 6 on day 12.

As to `O=C1CC2(C(=O)N1CN1CCOCC1)c1ccccc1-c1ccccc12`, the survivor count under setting [6] is 0 of 6 on day 12; the survivor count (dose: 1000.0 mg/kg/injection, schedule: Q04DX003 (ip), vehicle: Klucel (hydroxypropylcellulose) (HPC)) was 0 of 6 on day 12; the survivor count under setting [8] was 0 of 6 on day 12.

Regarding `COC1=C(OC)C(=O)C(N(C)C)=C(CO)C1=O`, the T/C under setting [5] was 147 % of control [5 of 6 alive on day 12]. For the same compound, the survivor count under setting [4] was 0 of 6 on day 12.

With `Cc1cc(O)c2c(c1O)C(=O)C13C(=C2O)C(=O)C2C(O)C1C1C(O)C3C(=O)C3=C(O)c4c(O)cc(C)c(O)c4C(=O)C321` (stereo not drawn), the T/C (dose: 4.0 mg/kg/injection, schedule: Q04DX003 (ip), vehicle: saline with Tween-80) is 148 % of control. The survivor count (dose: 8.0 mg/kg/injection, schedule: Q04DX003 (ip), vehicle: saline with Tween-80) is given as 3 of 6 on day 12.
